# Data published in patent US20260273028A1, “PEROXIDASE COMPOSITIONS CONTAINING IMPROVED ENHANCING AGENTS” (FLEN HEALTH PHARMA NV, priority 2022, published 2026).
# Some of these results come from one statement about several compounds together. At least one compound was matched to its structure with a doubt left.
# Test system: S. aureus (ATCC®6538™)
# Assay: Microbial challenge testing in alginogel with GOX+LPO
# Format: cell-based
# Details: alginogel with GOX+LPO (1:1); halide 0,03-0,003%
# Method: To determine the ability of an antimicrobial agent to elicit an antimicrobial preserving efficacy in a gel environment, a microbiological challenge test can be performed. Here, the antimicrobial agent is a combination of the natural enzymes GOX+LPO. […] Microbial challenge testing was performed according to the method described in the European Pharmacopoeia current version chapter 5.1.3 ‘Efficacy of antimicrobial preservation’, but with adapted time points (0, 10, 20, 30, 40, 50, 60, 70 and 80 min instead of 0, 2, 7, 14 and 28 days). In brief, for every enhancing agent to be evaluated, a lab-scale alginogel (based on the Flaminal® formulation, but without the original enhancer guaiacol) including 0.0075% GOX+LPO (1:1) was prepared according to standard practices. […] After preparation, a homogenous sample of 10 g was transferred into a 50 ml conical tube for each alginogel to be evaluated and microorganism to be tested. […] Then, the 50 ml conical tubes containing the alginogel samples to be evaluated were inoculated with 100 μl of the designated inoculum. At the start (time point 0) and after 0, 10, 20, 30, 40, 50, 60, 70 and 80 min, the number of viable microorganisms per gram product (expressed as CFU/g) was determined by transferring a sample of 0.5 g of the product into a 15 ml conical tube containing 4.5 ml of sterile diluent and applying general dilution and plate count techniques. […]
row,SMILES,time to complete killing of S. aureus
1,"[Br-].[K+] [KBr, potassium bromide, reference compound]",> 80 min
2,"[Cl-].[K+] [KCl, potassium chloride, reference compound]",> 80 min
